Results on 64 compounds are retold here after PubChem BioAssay AID1671190 (National Center for Advancing Translational Sciences (NCATS), 2021).

The chains behind the UniProt entries cited, without tags or fusion partners. Where a name states a change or a piece, a line headed by the entry shows the natural chain unless it says otherwise.
UniProt P18054: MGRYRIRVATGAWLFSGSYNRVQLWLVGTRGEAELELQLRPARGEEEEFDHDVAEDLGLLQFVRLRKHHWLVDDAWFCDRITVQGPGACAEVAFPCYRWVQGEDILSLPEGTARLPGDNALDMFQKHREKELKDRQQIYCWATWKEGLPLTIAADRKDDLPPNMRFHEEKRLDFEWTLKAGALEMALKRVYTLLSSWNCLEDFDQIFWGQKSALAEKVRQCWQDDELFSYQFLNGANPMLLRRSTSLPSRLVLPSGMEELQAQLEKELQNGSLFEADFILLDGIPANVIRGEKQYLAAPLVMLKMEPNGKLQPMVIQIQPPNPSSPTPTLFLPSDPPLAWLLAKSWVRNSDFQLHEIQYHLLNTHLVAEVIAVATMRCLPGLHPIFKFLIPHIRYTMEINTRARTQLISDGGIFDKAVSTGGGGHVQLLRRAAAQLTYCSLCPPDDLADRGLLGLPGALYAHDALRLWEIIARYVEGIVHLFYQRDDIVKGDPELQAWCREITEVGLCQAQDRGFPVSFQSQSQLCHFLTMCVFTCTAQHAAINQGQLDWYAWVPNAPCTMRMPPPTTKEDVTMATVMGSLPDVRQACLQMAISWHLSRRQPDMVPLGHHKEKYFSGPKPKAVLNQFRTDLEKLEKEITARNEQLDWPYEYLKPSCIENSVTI

Values joined by “and” are separate entries in the source; they are usually repeats but may differ in a detail not shown here. Equal entries are not always repeated. About 6,100 (1.1%) of roughly 580,000 compounds were called active. Not shown: some 15% with an inconclusive outcome. Calls follow the shape of the dose curve; as a rule, active = well fitted inhibition curve with a large enough effect; inconclusive = small, poorly fitted or top-dose-only effect, or another doubt; inactive = no such curve, though single readings can be large or run the other way. Only a part is listed here, and it is no random draw. The source gives no active or inactive call for entries shown without one. The source holds several records for some structures; these can differ, active in one and inactive in another.
% is scaled to controls: 0 for no effect and ±100 for the full control effect; potency is read from the fitted curve at half-maximal effect.

The target in the test is Polyunsaturated fatty acid lipoxygenase ALOX12 (Homo sapiens) (UniProt P18054). Put plainly: Primary qHTS assay for inhibitors of human arachidonate 12S-lipoxygenase (ALOX12): Round 2. As to conditions: purified 12hLO, xylenol orange hydroperoxide absorbance; activity change, negative = inhibition: at 0.00344 µM (top of the series) unless noted. The essentials: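 Purified human 12hLO (150 nM final) in 25 mM Hepes, 0.01% Triton X-100, pH 7.0 was preincubated 15 min at room temperature with compound. Then 40 uM arachidonic acid was added, 30 min. Hydroperoxide was read by Fe-XO absorbance ratio 573/405 nm.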
(In general: In qHTS, concentration-response curves come from the screen itself.)
`CCN[C@H](C)Cc1cccc(C(F)(F)F)c1`: the activity change, negative = inhibition is 1.7% [at 0.00599 µM]. Same read-out and setting: under `CC(C)c1cccc(C(C)C)c1O` stands -34.2%; under `CN(C)CCc1c[nH]c2ccccc12`, -12.5% [at 0.0105 µM]; under `CC[N+]1(C)CCCC(OC(=O)C(O)(c2ccccc2)c2ccccc2)C1` (centres undefined), 15.1%. Still for that read-out and setting: under `c1ccc2c(c1)OCC(C1=NCCN1)O2` (centres undefined) stands -25.6%. Regarding `c1ccc(Nc2ccc(Nc3ccccc3)cc2)cc1`, the Potency is active: 14.1 µM. Consider `CC[C@@H](CO)NC(=O)[C@@H]1C=C2c3cccc4c3c(cn4C)C[C@H]2N(C)C1`, for which the activity change, negative = inhibition is 0.954%.

For the compound `c1ccc(CN2CCNCC2)cc1`, the activity change, negative = inhibition came out at 20.1% [at 0.0105 µM]. On the same count and under the same terms, under `CN1C(=O)CN=C(c2ccccc2)c2cc(Cl)ccc21` stands -27.7%; under `C[C@]12CC[C@H](O)CC1=CC[C@@H]1[C@@H]2CC[C@]2(C)C(=O)CC[C@@H]12`, -13.3%. Turning to `CC(Cc1ccccc1)NCc1ccccc1Cl` (centres undefined), the activity change, negative = inhibition was -27.8%. Still for that read-out and setting: with `COc1ccc2c(c1OC)CN1CCc3cc4c(cc3C1C2)OCO4` (centres undefined) the figure was -16.6%. The same measure, in the same setting: with `C[CH2][Hg][S]c1ccccc1C(=O)O` the figure was -32.9%; with `Cc1ncc(CNC(=O)N(CCCl)N=O)c(N)n1`, 46.9%; with `COc1cc(C[C@@H](C)N)c(OC)cc1C`, -9.06% [at 0.00599 µM]. On to `O=c1[nH]c(=S)n(Cc2ccc(F)cc2)c(O)c1/C=N/N1CCCCCC1`, for which the Potency is active: 35.5 µM. As to `CC(C)(C)NCC(O)c1cc(Cl)c(N)c(C(F)(F)F)c1` (centres undefined), the activity change, negative = inhibition was determined as 24.1%. Consider `c1ccc(N2CCNCC2)cc1`, for which the activity change, negative = inhibition was 21.4%. Same read-out and setting: with `Oc1ccc(Cl)cc1Cc1ccccc1` the figure was 11.4%; with `COc1ccc2c3c1O[C@H]1[C@@H](O)C=C[C@H]4[C@@H](C2)N(C)CC[C@@]341`, -0.486% [at 0.00599 µM]; with `COc1cc(CC(C)N)cc(OC)c1OC` (centres undefined), -74.4% [at 0.00599 µM]. Same read-out and setting: with `Cc1ccc(Cl)c(O)c1` the figure was 1.03%; with `COc1ccc2[nH]cc(CCN(C(C)C)C(C)C)c2c1`, 30.7% [at 0.00599 µM]. Regarding `CN1C[C@@H](NS(=O)(=O)N(C)C)C[C@@H]2c3cccc4c3c(cn4C)C[C@H]21`, the activity change, negative = inhibition was -24.3%. The same measure, in the same setting: with `CC(C)(O)C(Cl)(Cl)Cl` the figure was -33.2%. On the same count and under the same terms, under `Oc1cccc2cccnc12` stands -0.0964%; under `CC(C)(N)Cc1ccccc1Cl`, 25.5%. Same read-out and setting: under `c1ccc2nc(N3CCNCC3)ccc2c1` stands 16.7%. With `CC(CCc1ccccc1)NC(C)C(O)c1ccc(O)cc1` (centres undefined), the activity change, negative = inhibition is -27.8%.

On to `CC1Sc2c(C(=O)O)c(=O)c3cc(F)c(N4CCNCC4)cc3n21` (centres undefined), for which the activity change, negative = inhibition is -51.6%.

Turning to `O=c1oc2ccccc2c(O)c1C(CC(O)c1ccc(-c2ccc(Br)cc2)cc1)c1ccccc1` (centres undefined), the activity change, negative = inhibition is 43.6%. Still for that read-out and setting: with `CCCC[N+]1(C)[C@@H]2CC(OC(=O)[C@H](CO)c3ccccc3)C[C@H]1[C@@H]1O[C@@H]12` (some centres undefined) the figure was 27.9%; with `CCCOC(=O)c1cncn1C(C)c1ccccc1` (centres undefined), 6.2%; with `Clc1cccc(N2CCNCC2)c1`, 5.79%. Same read-out and setting: under `Clc1ccc(CSC(Cn2ccnc2)c2ccc(Cl)cc2Cl)cc1` (centres undefined) stands -8.42%; under `Oc1c(Br)cc(Br)cc1Br`, 46.5%; under `NNc1ccccc1`, 3.79%. On the same count and under the same terms, with `O=C(O)c1cc(Oc2ccc(C(F)(F)F)cc2Cl)ccc1[N+](=O)[O-]` the figure was 7.55%. Take `Cc1ncc2n1-c1ccc(Cl)cc1C(c1ccccc1F)=NC2`: the activity change, negative = inhibition was 36.7%. Same read-out and setting: under `CC(C)=CC1C(C(=O)OCc2cccc(Oc3ccccc3)c2)C1(C)C` (centres undefined) stands -17.9%; under `C=CCC1(C(C)CC)C(=O)NC(=O)NC1=O` (centres undefined), 11.3%. For `CCC(=O)OC1(c2ccccc2)CCN(C)CC1`, the activity change, negative = inhibition was -65.4% [at 0.00599 µM].

Take `C#CCOC(C(=O)OCCN(C)C)(c1ccccc1)c1ccccc1`: the activity change, negative = inhibition was -15.5%.

For the compound `COc1cccc(C(=O)CCN[C@@H](C)[C@H](O)c2ccccc2)c1`, the activity change, negative = inhibition was -33.9%. The same measure, in the same setting: under `COc1ccc(OC)c(CC(C)N)c1` (centres undefined) stands -12% [at 0.00599 µM]; under `CN1C(=S)CN=C(c2ccccc2)c2cc(Cl)ccc21`, 1.6%.

Regarding `COc1ccc(C(=O)N2CCCC2=O)cc1`, the activity change, negative = inhibition is -13.5%. Consider `Nc1ccncc1`, for which the activity change, negative = inhibition was -8.44%. Still for that read-out and setting: with `C[N+]1(CCF)[C@@H]2CC[C@H]1CC(OC(=O)C(O)(c1ccccc1)c1ccccc1)C2` (some centres undefined) the figure was 36.3%. Same read-out and setting: under `NC1(c2ccccc2)CCCCC1` stands 13.3% [at 0.00599 µM]; under `O=C1c2ccccc2C(=O)C1C(=O)C(c1ccccc1)c1ccccc1`, 9.24%. For the compound `COc1ccc(C(=O)C(C)(C)NO)cc1`, the Potency is active: 17.8 µM and active: 5.01 µM.

Consider `C[N+]1(CCC(C(N)=O)(c2ccccc2)c2ccccc2)CCCCC1`, for which the activity change, negative = inhibition was -17.5%. Still for that read-out and setting: with `COC(C)(C)CCCC(C)C/C=C/C(C)=C/C(=O)OC(C)C` (centres undefined) the figure was 52.1%; with `CC(Cc1ccc2c(c1)OCO2)NO` (centres undefined), -0.922% [at 0.00599 µM]; with `Cc1ccc(N=CN(C)C=Nc2ccc(C)cc2C)c(C)c1`, 7.67%.

With `CC(C)CC(N(C)C)C1(c2ccc(Cl)cc2)CCC1` (centres undefined), the activity change, negative = inhibition was -8.34%. Consider `C[C@H]1[C@@H]2Cc3ccc(O)cc3[C@@]1(C)CCN2C`, for which the activity change, negative = inhibition was -20.2% [at 0.0215 µM]. For the compound `C#C[C@]1(O)CC[C@H]2[C@@H]3CCC4=CC(=O)CC[C@]4(C)[C@H]3CC[C@@]21C`, the activity change, negative = inhibition is 23.2%. As for `CCN1CCCCC12Cc1ccccc1CN(C(=O)Cc1ccccc1)C2` (centres undefined), the Potency was active: 6.31 µM. For `CC(C)[N+](C)(CCC(C(N)=O)(c1ccccc1)c1ccccc1)C(C)C`, the activity change, negative = inhibition is -31%. On to `CC[C@H](O)C(C[C@H](C)N(C)C)(c1ccccc1)c1ccccc1`, for which the activity change, negative = inhibition was -48.7% [at 0.00599 µM]. With `CCN[C@@H](C)Cc1ccccc1`, the activity change, negative = inhibition was -17.9% [at 0.0105 µM].

As to `CCO[C@H]1O[C@@H]2OC3(C)CC[C@H]4[C@H](C)CC[C@@H]([C@H]1C)[C@@]24OO3`, the activity change, negative = inhibition was -33.1%.
